The values that follow come from article doi:10.1101/260919.

Chains of the proteins cited; added tags and fusions are not shown. Lines headed by an entry give the natural chain unless they say otherwise; changes in a name come on top. A line that says so, or that is headed by a name, gives the form on record, which may keep a tag or linker.
endogenous DPP9 (dipeptidyl peptidase 9) (Q86TI2-2, form named): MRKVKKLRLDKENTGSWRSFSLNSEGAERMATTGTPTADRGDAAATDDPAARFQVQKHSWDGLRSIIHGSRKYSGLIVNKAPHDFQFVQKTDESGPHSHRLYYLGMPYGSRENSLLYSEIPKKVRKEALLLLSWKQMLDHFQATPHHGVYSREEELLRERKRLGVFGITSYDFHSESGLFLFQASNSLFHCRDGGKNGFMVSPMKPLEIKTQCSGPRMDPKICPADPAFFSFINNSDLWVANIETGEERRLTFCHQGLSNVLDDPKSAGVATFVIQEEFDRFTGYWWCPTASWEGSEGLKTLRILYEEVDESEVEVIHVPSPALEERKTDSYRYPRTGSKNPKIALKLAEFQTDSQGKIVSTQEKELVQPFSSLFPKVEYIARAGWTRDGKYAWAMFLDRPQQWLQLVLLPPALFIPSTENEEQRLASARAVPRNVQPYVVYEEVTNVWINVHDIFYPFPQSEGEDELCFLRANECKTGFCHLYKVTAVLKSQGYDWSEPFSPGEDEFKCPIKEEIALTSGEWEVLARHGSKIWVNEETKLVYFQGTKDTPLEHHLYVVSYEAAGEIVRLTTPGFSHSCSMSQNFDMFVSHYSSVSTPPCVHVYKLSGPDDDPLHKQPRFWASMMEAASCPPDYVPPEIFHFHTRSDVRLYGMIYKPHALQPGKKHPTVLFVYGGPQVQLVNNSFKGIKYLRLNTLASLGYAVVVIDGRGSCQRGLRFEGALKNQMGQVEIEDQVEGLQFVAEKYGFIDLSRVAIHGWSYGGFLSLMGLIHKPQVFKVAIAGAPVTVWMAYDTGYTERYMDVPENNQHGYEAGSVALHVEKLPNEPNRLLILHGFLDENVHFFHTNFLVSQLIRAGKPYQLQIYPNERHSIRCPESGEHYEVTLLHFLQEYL

Test in all cases: affinity purification with mass spectrometry
The target in experiment [1] is T1, FLAG-tagged full-length NLRP1 (human) (UniProt Q9C000).
T1 sequence: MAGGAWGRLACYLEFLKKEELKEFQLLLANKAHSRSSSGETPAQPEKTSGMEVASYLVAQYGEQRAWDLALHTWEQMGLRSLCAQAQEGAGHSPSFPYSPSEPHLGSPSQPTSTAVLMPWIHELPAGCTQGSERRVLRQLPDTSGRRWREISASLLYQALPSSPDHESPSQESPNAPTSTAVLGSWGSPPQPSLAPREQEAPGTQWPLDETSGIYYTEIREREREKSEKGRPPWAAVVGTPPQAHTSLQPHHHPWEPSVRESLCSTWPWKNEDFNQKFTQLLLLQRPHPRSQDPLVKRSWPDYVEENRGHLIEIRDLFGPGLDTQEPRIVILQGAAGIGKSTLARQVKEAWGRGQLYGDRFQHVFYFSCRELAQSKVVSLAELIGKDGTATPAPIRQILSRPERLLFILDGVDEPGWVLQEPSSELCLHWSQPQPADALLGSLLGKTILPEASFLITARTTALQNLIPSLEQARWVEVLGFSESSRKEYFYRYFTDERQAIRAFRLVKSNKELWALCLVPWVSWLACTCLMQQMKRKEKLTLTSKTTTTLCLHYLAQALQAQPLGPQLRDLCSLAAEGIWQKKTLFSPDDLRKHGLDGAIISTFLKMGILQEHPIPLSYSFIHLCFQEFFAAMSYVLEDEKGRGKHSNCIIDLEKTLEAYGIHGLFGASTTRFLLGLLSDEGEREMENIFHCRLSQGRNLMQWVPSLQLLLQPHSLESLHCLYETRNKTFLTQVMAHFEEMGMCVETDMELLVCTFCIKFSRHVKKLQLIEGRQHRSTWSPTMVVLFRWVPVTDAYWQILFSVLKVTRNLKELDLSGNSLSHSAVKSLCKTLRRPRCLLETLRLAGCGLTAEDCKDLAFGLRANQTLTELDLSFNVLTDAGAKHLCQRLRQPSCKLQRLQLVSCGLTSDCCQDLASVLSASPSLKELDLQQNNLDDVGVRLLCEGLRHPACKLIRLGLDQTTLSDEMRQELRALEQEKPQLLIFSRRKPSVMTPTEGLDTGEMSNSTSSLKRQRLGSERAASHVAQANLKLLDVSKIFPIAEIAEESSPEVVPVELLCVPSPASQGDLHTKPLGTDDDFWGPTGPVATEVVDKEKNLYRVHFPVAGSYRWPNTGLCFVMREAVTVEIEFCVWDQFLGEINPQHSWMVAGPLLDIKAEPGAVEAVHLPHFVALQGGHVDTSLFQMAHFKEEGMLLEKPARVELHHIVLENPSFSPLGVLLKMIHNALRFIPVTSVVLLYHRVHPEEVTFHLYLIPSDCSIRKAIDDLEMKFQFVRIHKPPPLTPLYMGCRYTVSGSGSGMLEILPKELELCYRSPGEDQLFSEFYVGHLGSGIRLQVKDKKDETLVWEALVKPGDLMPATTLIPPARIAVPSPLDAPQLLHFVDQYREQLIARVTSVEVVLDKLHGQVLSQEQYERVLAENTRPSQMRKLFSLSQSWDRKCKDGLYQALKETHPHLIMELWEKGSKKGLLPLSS

Experiment [2] deals with T2, NLRP1 a.a. 1213-1373 (carboxy-terminal fragment of the FIIND domain) (human) (UniProt Q9C000).
T2 sequence: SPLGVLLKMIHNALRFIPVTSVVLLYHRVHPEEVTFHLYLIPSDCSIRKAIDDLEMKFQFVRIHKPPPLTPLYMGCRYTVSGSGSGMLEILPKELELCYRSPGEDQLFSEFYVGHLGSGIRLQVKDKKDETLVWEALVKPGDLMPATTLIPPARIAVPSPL

The target of experiment [3] is T3, NLRP1 a.a. 1213-1474 (constitutively active auto-proteolytic fragment) (human) (UniProt Q9C000).
T3 sequence: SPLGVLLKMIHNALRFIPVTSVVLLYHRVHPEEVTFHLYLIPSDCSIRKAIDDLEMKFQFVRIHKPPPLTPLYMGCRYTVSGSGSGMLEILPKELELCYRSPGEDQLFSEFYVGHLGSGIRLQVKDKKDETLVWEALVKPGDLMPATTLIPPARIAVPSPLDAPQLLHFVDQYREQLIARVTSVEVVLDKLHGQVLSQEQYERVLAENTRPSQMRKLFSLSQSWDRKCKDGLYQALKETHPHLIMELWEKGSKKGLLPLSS

These are yes or no findings as the source states them, for the method shown. In cells and extracts the contact can be indirect. These calls come from enrichment with a bait or labelling near it, and not all partners need be listed. For part of these data: A no says only that the protein was not detected with the bait. For part of these data: Sequences can lack the tags named with a protein.

For “endogenous DPP9 (dipeptidyl peptidase 9) (from UniProt Q86TI2-2 1-892) (enzyme)”, the binding result in experiment [1] is on record as “binds”; in experiment [2] it was “no binding”; in experiment [3] it was “no binding”.
